Results published in US4250085 (dated 1981).
“And” between values parts separate entries of the source, which are not always exact repeats. Identical values can stand only once.

Assay: general procedure: solution-phase peptide synthesis; N-hydroxysuccinimide ester (dicyclohexylcarbodiimide)
[1] = coupling step, monobenzylamine salt

“(1R)-1-(N-sarcosyl-L-histidyl-L-alanylamino)-ethylphosphonic acid” showed a step yield (late stage modification step, monohydrobromide salt) of 69%.

“(1R)-1-(N-sarcosyl-glycyl-L-alanylamino)-ethylphosphonic acid” gave a step yield (late stage modification step) of 56%.

“(N-sarcosyl-L-alanyl-L-alanylamino)-methylphosphonic acid” gave a step yield (late stage modification step) of 85%.

For “(1R)-1-[(N-benzyloxycarbonyl-sarcosyl-L-methionyl-L-alanyl)amino]-ethylphosphonic acid”, the step yield [1] was 76%.

Work on “(1R)-1-[(N-benzyloxycarbonyl-sarcosyl-L-histidyl-L-alanyl)amino]-ethylphosphonic acid” yielded a step yield (coupling step) of 95%.

“[(N-benzyloxycarbonyl-sarcosyl-L-alanyl-L-alanyl)amino]-methylphosphonic acid” gave a step yield [1] of 73%.

“(1R)-1-[(N-benzyloxycarbonyl-sarcosyl-L-alanyl-L-alanyl)amino]-ethylphosphonic acid” gave a step yield [1] of 81%.

With “(1R)-1-(N-sarcosyl-L-alanyl-L-alanylamino)-ethylphosphonic acid” the step yield (late stage modification step, run 1) was 93% and 87%.

“(1R)-1-[(N-benzyloxycarbonyl-sarcosyl-glycyl-L-alanyl)amino]-ethylphosphonic acid” gave a step yield (coupling step) of 95% and a step yield [1] of 65%.
